The text below walks through data of paper PMC11784234.

The target in this test is human STAT2, HA-tagged (HA-STAT2-Myc) (human), P52630. The test can be described thus: co-IP; HEK293T cells transfected; lysate incubated with anti-HA Affinity Gel at 4°C overnight, immunoblot. The note with it: remark: other sources report otherwise.

No constants are given. Whether binding was seen depends on the method and setting. In cells and extracts the contact can be indirect. Some binding calls cover weakened binding; strength is not graded here.

B1: IRF9, Q00978 1-393 (protein)
chain: MASGRARCTRKLRNWVVEQVESGQFPGVCWDDTAKTMFRIPWKHAGKQDFREDQDAAFFKAWAIFKGKYKEGDTGGPAVWKTRLRCALNKSSEFKEVPERGRMDVAEPYKVYQLLPPGIVSGQPGTQKVPSKRQHSSVSSERKEEEDAMQNCTLSPSVLQDSLNNEEEGASGGAVHSDIGSSSSSSSPEPQEVTDTTEAPFQGDQRSLEFLLPPEPDYSLLLTFIYNGRVVGEAQVQSLDCRLVAEPSGSESSMEQVLFPKPGPLEPTQRLLSQLERGILVASNPRGLFVQRLCPIPISWNAPQAPPGPGPHLLPSNECVELFRTAYFCRDLVRYFQGLGPPPKFQVTLNFWEESHGSSHTPQNLITVKMEQAFARYLLEQTPEQQAAILSLV
With B1, the binding entry is “binds”.
